How the values were obtained:
[1] = test system: S. aureus strains (Newman, USA300, CA-409, CA-127, NY-315); assay: Rapid SYBR Green/PI antibiotic susceptibility test; format: cell-based, Staphylococcus aureus; details: 30 minutes; kanamycin 25, ciprofloxacin 50 μg/mL
[2] = test system: round body form of B. burgdorferi; assay: SYBR Green I/PI assay on amoxicillin-induced round body form

With `O=C(O)c1cn(C2CC2)c2cc(N3CCNCC3)c(F)cc2c1=O` [Ciprofloxacin] the “percent killed, resistant strain CA-127” value [1] was 28%, the viability at 50 µM ([2]; Borreliella burgdorferi, 168 h, read-out: Residual viable cells (SYBR Green I/PI assay)) was 28% and the “Ratios of green/red fluorescence, Primary screening” value ([2]; round body form, 50 μM, 7 days) was 6.30. For the same compound, the “Ratios of green/red fluorescence, Rescreening (first column)” value ([2]; round body form, 50 μM, 7 days) was 6.04 and the “Ratios of green/red fluorescence, Rescreening (second column)” value ([2]; round body form, 50 μM, 7 days) was 6.20.

From patent US20170058314A1, “NOVEL METHODOLOGY FOR IDENTIFYING ANTI-PERSISTER ACTIVITY AND ANTIMICROBIAL SUSCEPTIBILITY FOR BORRELIA BURGDORFERI AND OTHER BACTERIA” (priority 2014, published 2017)
